# From article PMC5296607
# Results are given in words; binding and its absence hold for the method and conditions named. Binding seen in cells or lysates may run through a third protein. A result given as binding can be weak or reduced; the word gives no strength.
# Target: T1, RFP-PkaR (red fluorescent protein-labeled PkaR regulatory subunit of protein kinase A) (Aspergillus fumigatus) (UniProt Q96UX3)
# T1 sequence: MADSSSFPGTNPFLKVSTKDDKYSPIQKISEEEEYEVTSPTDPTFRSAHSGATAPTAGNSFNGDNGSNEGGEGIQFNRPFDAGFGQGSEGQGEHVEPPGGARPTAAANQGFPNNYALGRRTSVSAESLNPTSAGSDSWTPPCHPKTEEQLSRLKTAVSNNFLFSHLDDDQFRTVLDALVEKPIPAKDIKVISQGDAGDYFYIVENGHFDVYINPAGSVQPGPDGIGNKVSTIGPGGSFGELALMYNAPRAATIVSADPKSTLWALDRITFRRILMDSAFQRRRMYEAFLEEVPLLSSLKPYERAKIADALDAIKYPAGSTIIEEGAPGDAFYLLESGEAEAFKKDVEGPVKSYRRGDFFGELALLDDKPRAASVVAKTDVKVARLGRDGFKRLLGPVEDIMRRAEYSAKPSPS
# Experiment: co-IP; RFP-Trap (Chromotek) affinity purification of RFP-PkaR from normalized crude extracts of A. fumigatus strains co-expressing GFP-labeled PkaC1 isoforms; Western blot with anti-GFP antibodies; GFP-Trap of the same extracts as control of PkaC1 level
substance,measurement,value
PkaC1-T333A-GFP (GFP-labeled PkaC1 with the T333A substitution) (Aspergillus fumigatus) (enzyme),binding,binds
